From ChEMBL document CHEMBL5528074 (J Med Chem, 2024)

What was measured:
in vitro [1] = settings: human, Caco-2
in vitro [2] = settings: human, Caco-2; remark: listed apart in the source

Work on `Nc1nc2ccc(C(=O)N3CCN(C(=O)/C=C/c4ccc(Br)cc4)CC3)cc2s1` yielded a Papp B→A (in vitro [1]) of 11.8 ×10⁻⁶ cm/s and a Papp A→B (in vitro [2]) of 12.7 ×10⁻⁶ cm/s.
